Source: EP0264914A2, “Process for producing L-phenylalanine” (KYOWA HAKKO KOGYO CO., LTD., priority 1986, dated 1988)
Some results were stated once for a whole list of compounds, not compound by compound.

System: DS
Experiment: DS activity of the transformant carrying pCDS1, feedback inhibition
Format: biochemical
Details: transformant of Corynebacterium glutamicum ATCC 39019 carrying pCDS1 (DS gene from K38)

In the case of `N[C@@H](Cc1ccc(O)cc1)C(=O)O` [tyrosine], the “inhibition of DS activity” value is reported as “released from inhibition”.
